Source: patent US20210309718A1
These are yes or no findings as the source states them, for the method shown. Some binding calls cover weakened binding; strength is not graded here.

Chains of the proteins cited; added tags and fusions are not shown. Lines headed by an entry give the natural chain unless they say otherwise; changes in a name come on top.
UniProt P22607: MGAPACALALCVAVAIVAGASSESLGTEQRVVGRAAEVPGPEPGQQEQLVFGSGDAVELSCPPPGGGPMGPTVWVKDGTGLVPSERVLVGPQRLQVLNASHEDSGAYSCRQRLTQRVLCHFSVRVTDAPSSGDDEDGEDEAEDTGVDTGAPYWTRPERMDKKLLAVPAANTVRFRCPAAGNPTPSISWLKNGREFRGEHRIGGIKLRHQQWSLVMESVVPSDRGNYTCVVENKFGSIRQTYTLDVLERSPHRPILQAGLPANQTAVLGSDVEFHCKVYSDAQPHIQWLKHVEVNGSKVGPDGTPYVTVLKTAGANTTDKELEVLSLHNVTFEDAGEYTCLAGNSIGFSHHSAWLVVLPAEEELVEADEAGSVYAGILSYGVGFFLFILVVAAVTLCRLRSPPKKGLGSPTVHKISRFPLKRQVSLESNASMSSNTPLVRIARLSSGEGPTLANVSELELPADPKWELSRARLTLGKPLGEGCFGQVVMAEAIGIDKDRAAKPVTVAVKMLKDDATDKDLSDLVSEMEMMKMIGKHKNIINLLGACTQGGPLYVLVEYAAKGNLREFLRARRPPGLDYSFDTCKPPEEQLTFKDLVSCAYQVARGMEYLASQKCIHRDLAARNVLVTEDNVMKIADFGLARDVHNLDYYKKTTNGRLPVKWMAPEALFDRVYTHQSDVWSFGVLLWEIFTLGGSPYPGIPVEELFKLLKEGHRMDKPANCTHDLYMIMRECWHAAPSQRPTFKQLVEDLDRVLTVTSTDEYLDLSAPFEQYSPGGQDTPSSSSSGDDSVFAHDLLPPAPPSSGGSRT
UniProt P09038: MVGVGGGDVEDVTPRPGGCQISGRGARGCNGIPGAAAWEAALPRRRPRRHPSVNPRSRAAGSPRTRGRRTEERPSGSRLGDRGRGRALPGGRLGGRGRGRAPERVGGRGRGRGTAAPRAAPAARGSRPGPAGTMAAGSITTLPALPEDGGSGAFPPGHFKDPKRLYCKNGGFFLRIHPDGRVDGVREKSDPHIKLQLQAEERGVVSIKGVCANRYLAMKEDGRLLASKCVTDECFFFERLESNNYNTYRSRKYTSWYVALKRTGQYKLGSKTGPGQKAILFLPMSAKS

Assays:
sFGFR3_Del4-D3 (human) [1] = biological target: sFGFR3_Del4-D3 (human) (UniProt P22607); test: SPR (Biacore T200), immobilised sFGFR3_Del4-D3
sFGFR3_Del4-D3 (human) [2] = biological target: sFGFR3_Del4-D3 (human) (UniProt P22607); test: SPR (BIACORE T200), sFGFR3_Del4-D3 immobilised, hFGF2 as analyte; overlaid fit lines of the binding model
human FGF2 (human) [3] = biological target: human FGF2 (human) (UniProt P09038); test: SPR (BIACORE T200), hFGF2 immobilised on CM5 chip, sFGFR3 polypeptide as analyte, five successive injections; concentrations not given
human FGF2 (human) [4] = biological target: human FGF2 (human) (UniProt P09038); test: SPR, FGF2 binding activity and Kd compared for HEK 293 and CHO material
human FGF2 (human) [5] = biological target: human FGF2 (human) (UniProt P09038); test: SPR (BIACORE T200), hFGF2 immobilised on CM5 chip, analyte injected in five successive steps; concentrations not given
human FGF2 (human) [6] = biological target: human FGF2 (human) (UniProt P09038); test: SPR (Biacore T200), immobilised hFGF2

binding (sFGFR3_Del4-D3 (human) [1]) | binding (sFGFR3_Del4-D3 (human) [2]) | binding (human FGF2 (human) [3]) | binding (human FGF2 (human) [4]) | binding (human FGF2 (human) [5]) | binding (human FGF2 (human) [6]) | Substance
binds | binds |  |  |  |  | human FGF2 (from UniProt P09038 143-288) (ligand)
 |  | binds | binds | binds |  | sFGFR3_Del4 (from UniProt P22607 23-435) (receptor)
 |  | binds |  | binds | binds | sFGFR3_Del4-C253S (from UniProt P22607 23-435) (receptor)
 |  | binds | binds |  |  | sFGFR3_Del1 (from UniProt P22607 23-806) (receptor)
